Among the data in PubChem BioAssay AID330 (DTP/NCI, 2004) are survivor count and T/C values, retold here.

The list shows only some results of the screen, not a fair sample: it gathers tests that were run many times, whatever their T/C, doses with no T/C, and many T/C values between a quarter and a half above the control. Further doses and runs are listed elsewhere. T/C gives the treated animals as a percentage of the vehicle group. Some doses have a count of surviving animals in place of a T/C: the source holds a T/C of zero for them, seemingly a mark for toxic or unscored doses. Some survivor counts are full or nearly so, which does not show that the dose was tolerated: survival well below the control is almost never listed, so the zero probably covers shortened survival too. Survivors were counted at the toxicity check, usually on the fifth day, unless a day is given; later deaths do not show. Schedules are NCI's codes, taken here to give the interval after Q, in days (D) or hours (H), and the number of doses after X. Some entries were tested several times; the values are given in rising order. For survival time, this PubChem deposit counts one and a half times the control or more as active, and values a quarter to a half above the control carry no call in these data; other NCI protocols may use other cut-offs.

In the experiment the test system is P388 leukemia ip, CD2F1 mice, survival T/C. The experiment in a line: NCI In Vivo Anticancer Drug Screen. Data for tumor model P388 Leukemia (intraperitoneal) in CD2F1 (CDF1) mice. The settings on record: T/C endpoint: median survival time, higher T/C = longer survival.
The mark [1] stands for this setting: dose: 100.0 mg/kg/injection, schedule: Q04DX003 (ip), vehicle: saline.
[2] abbreviates: dose: 200.0 mg/kg/injection, schedule: Q04DX003 (ip), vehicle: saline.
Setting [3] is: dose: 400.0 mg/kg/injection, schedule: Q04DX003 (ip), vehicle: saline.
Where [4] appears, read: dose: 240.0 mg/kg/injection, schedule: Q01DX005 (ip), vehicle: saline with Tween-80.
Setting [5] is: dose: 50.0 mg/kg/injection, schedule: Q01DX005 (ip), vehicle: saline with Tween-80.
The mark [6] stands for this setting: dose: 200.0 mg/kg/injection, schedule: Q01DX005 (ip), vehicle: saline with Tween-80.
Where [7] appears, read: dose: 200.0 mg/kg/injection, schedule: Q01DX005 (ip), vehicle: Klucel (hydroxypropylcellulose) (HPC).
Where [8] appears, read: dose: 200.0 mg/kg/injection, schedule: Q01DX009 (ip), vehicle: saline.
Setting [9] is: dose: 400.0 mg/kg/injection, schedule: Q01DX005 (ip), vehicle: water.
[10] abbreviates: dose: 200.0 mg/kg/injection, schedule: Q01DX009 (ip), vehicle: saline with Tween-80.

Regarding `CN(C)C[N+](C)(C)Cc1ccc(C[N+](C)(C)C[N+](C)(C)Cc2ccc(CCl)cc2)cc1`, the survivor count was 2 of 6 (dose: 1.56 mg/kg/injection, schedule: Q04DX003 (ip), vehicle: saline); 1 of 6 (dose: 3.12 mg/kg/injection, schedule: Q04DX003 (ip), vehicle: saline); 0 of 6 (dose: 6.25 mg/kg/injection, schedule: Q04DX003 (ip), vehicle: saline); 0 of 6 (dose: 12.5 mg/kg/injection, schedule: Q04DX003 (ip), vehicle: saline); 0 of 6 under setting [1]; 0 of 6 under setting [2]. The survivor count under setting [3] is on record as 0 of 6.

As for `O=C1CSC(c2ccc(F)cc2F)N1c1nncs1` (centres undefined), under setting [4], the survivor count is given as 6 of 6.

With `Cc1cc2nc(CC(=O)c3cccnc3)c(CC(=O)c3cccnc3)nc2cc1C`, the survivor count is, setting by setting: under setting [5], 6 of 6; under setting [6], 3 of 6.

Turning to `COc1cc(C2c3cc4c(cc3CC3COC(=O)N32)OCO4)cc(OC)c1OC` (centres undefined), the survivor count was 2 of 6 (dose: 60.0 mg/kg/injection, schedule: Q01DX005 (ip), vehicle: Klucel (hydroxypropylcellulose) (HPC)); 1 of 6 (dose: 120.0 mg/kg/injection, schedule: Q01DX005 (ip), vehicle: Klucel (hydroxypropylcellulose) (HPC)); 0 of 6 (dose: 240.0 mg/kg/injection, schedule: Q01DX005 (ip), vehicle: Klucel (hydroxypropylcellulose) (HPC)).

On to `N#Cc1c(-c2ccc(Cl)cc2)cn2c1[nH]c(=O)c1c3c(sc12)CCCC3`, for which, under setting [4], the survivor count is 6 of 6.

Consider `Cc1ccc(N=C(N)NC#N)cc1`, for which the survivor count (dose: 400.0 mg/kg/injection, schedule: Q04DX003 (ip), vehicle: saline with Tween-80) is on record as 6 of 6.

As for `C[C@@H]1C(=O)O[C@H]2[C@H]1CC[C@@]1(C)C=C(Cl)C(=O)[C@@H](C)[C@H]21`, the survivor count (dose: 200.0 mg/kg/injection, schedule: Q04DX002 (ip), vehicle: saline with Tween-80) is 0 of 6.

`Cn1c(=O)c2c(nc(CCCCc3nc4c(c(=O)n(C)c(=O)n4C)n3C)n2C)n(C)c1=O`: the survivor count runs as follows: (dose: 12.5 mg/kg/injection, schedule: Q01DX009 (ip), vehicle: saline with Tween-80) 6 of 6; (dose: 25.0 mg/kg/injection, schedule: Q01DX009 (ip), vehicle: saline with Tween-80) 6 of 6.

With `O=C1c2ccccc2-n2c1nc1ccc([N+](=O)[O-])cc1c2=O`, the survivor count by setting is: (dose: 100.0 mg/kg/injection, schedule: Q04DX002 (ip), vehicle: Klucel (hydroxypropylcellulose) (HPC)) 1 of 6; (dose: 200.0 mg/kg/injection, schedule: Q04DX002 (ip), vehicle: Klucel (hydroxypropylcellulose) (HPC)) 1 of 6; (dose: 400.0 mg/kg/injection, schedule: Q01DX005 (ip), vehicle: Klucel (hydroxypropylcellulose) (HPC)) 0 of 6.

As for `COC(=O)C1=CO[C@@H](C)[C@@H]2CN3CCc4c([nH]c5cc(OC)ccc45)[C@@H]3C[C@H]12`, the survivor count under setting [6] is reported as 5 of 5.

Turning to `O=c1nc(Oc2ccc(Cl)cc2Cl)oc2cc(Cl)ccc12`, the survivor count under setting [4] is reported as 5 of 6.

Regarding `Nc1ccc2nc[nH]c(=O)c2c1`, the survivor count is, setting by setting: (dose: 50.0 mg/kg/injection, schedule: Q01DX005 (ip), vehicle: Klucel (hydroxypropylcellulose) (HPC)) 3 of 5 and 4 of 5; (dose: 100.0 mg/kg/injection, schedule: Q01DX005 (ip), vehicle: Klucel (hydroxypropylcellulose) (HPC)) 1 of 5; under setting [7], 0 of 5.

As for `CCCCOc1ccc(-c2cnc(-c3ccc(-c4ncc(-c5ccc(OCCCC)cc5)o4)cc3)o2)cc1`, the survivor count is 5 of 5 (dose: 12.0 mg/kg/injection, schedule: Q01DX005 (ip), vehicle: saline with Tween-80) and 5 of 5 (dose: 12.5 mg/kg/injection, schedule: Q01DX005 (ip), vehicle: saline with Tween-80).

Turning to `O=C1c2ccccc2NC(c2cc(Cl)cc(Cl)c2O)N1CCc1ccccn1` (centres undefined), under setting [8], the survivor count was 6 of 6.

As to `OCc1ccn2c1C(O)CC2` (centres undefined), the T/C (dose: 25.0 mg/kg/injection, schedule: Q01DX009 (ip), vehicle: saline) is 125 % of control.

For the compound `CC1(C)CC(Nc2ccccc2)=CC(N2CCOCC2)=N1`, the survivor count under setting [7] was 3 of 6.

For `CN=NNCc1ccccc1`, for the setting “dose: 12.5 mg/kg/injection, schedule: Q01DX005 (ip), vehicle: saline”, the T/C is 130 % of control. For the same compound, the survivor count reads like this: under setting [5], 5 of 5; (dose: 100.0 mg/kg/injection, schedule: Q01DX005 (ip), vehicle: saline with Tween-80) 0 of 5; under setting [6], 0 of 5.

`COc1ccc(NC(=O)C2C(=O)C(=O)N(c3ccc(OC)cc3)C2=O)cc1` (centres undefined): the survivor count (dose: 400.0 mg/kg/injection, schedule: Q04DX002 (ip), vehicle: saline with Tween-80) is on record as 2 of 6.

For `OC(CCl)CN1CC[N+]2(CC1)CC[N+]1(CCN(CC(O)CCl)CC1)CC2` (centres undefined), the T/C is, setting by setting: (dose: 100.0 mg/kg/injection, schedule: Q03HX016 (ip), vehicle: water) 128 % of control; (dose: 200.0 mg/kg/injection, schedule: Q03HX008 (ip), vehicle: water) 130 % of control; (dose: 200.0 mg/kg/injection, schedule: Q03HX016 (ip), vehicle: water) 134 % of control; under setting [9], 127 % of control. Also, the survivor count is, setting by setting: (dose: 200.0 mg/kg/injection, schedule: Q01DX005 (iv), vehicle: water) 5 of 8; (dose: 200.0 mg/kg/injection, schedule: Q03HX024 (ip), vehicle: water) 9 of 10; under setting [9], 0 of 8; (dose: 400.0 mg/kg/injection, schedule: Q01DX005 (iv), vehicle: water) 0 of 8; (dose: 800.0 mg/kg/injection, schedule: Q01DX005 (ip), vehicle: water) 10 of 10; (dose: 800.0 mg/kg/injection, schedule: Q01DX005 (iv), vehicle: water) 0 of 10. Also, the survivor count is, setting by setting: (dose: 800.0 mg/kg/injection, schedule: Q01DX009 (ip), vehicle: water) 10 of 10; (dose: 1600.0 mg/kg/injection, schedule: Q01DX009 (oral), vehicle: water) 10 of 10.

In the case of `CCOC(=O)[C@@H](F)[C@H](Br)C(=O)OCC`, the T/C under setting [10] was 125 and 126 % of control. For the same compound, the survivor count (dose: 400.0 mg/kg/injection, schedule: Q01DX009 (ip), vehicle: saline with Tween-80) is listed as 3 of 6.

Consider `ClCCCCN(CCN(CCCCCl)c1ccccc1)c1ccccc1`, for which the survivor count runs as follows: (dose: 50.0 mg/kg/injection, schedule: Q04DX002 (ip), vehicle: saline) 4 of 6; (dose: 100.0 mg/kg/injection, schedule: Q04DX002 (ip), vehicle: saline) 0 of 5; (dose: 200.0 mg/kg/injection, schedule: Q04DX002 (ip), vehicle: saline) 0 of 5; (dose: 400.0 mg/kg/injection, schedule: Q04DX002 (ip), vehicle: saline) 0 of 5.

As to `CCOC(=O)c1cnn(C)c1N`, the T/C is, setting by setting: (dose: 50.0 mg/kg/injection, schedule: Q01DX009 (ip), vehicle: saline) 131 % of control; (dose: 100.0 mg/kg/injection, schedule: Q01DX009 (ip), vehicle: saline) 138 % of control. Moreover, the survivor count is, setting by setting: under setting [8], 4 of 6; (dose: 400.0 mg/kg/injection, schedule: Q01DX009 (ip), vehicle: saline) 3 of 6.

For the compound `CC(C)(C)OC(=O)NCC(=O)ON1C(=O)CCC1=O`, the survivor count under setting [10] is reported as 6 of 6.

For the compound `O=C(NCCNC(=O)c1cc(Cl)cc(Cl)c1O)c1cc(Cl)cc(Cl)c1O`, the survivor count is reported as 6 of 6 (dose: 120.0 mg/kg/injection, schedule: Q01DX005 (ip), vehicle: saline with Tween-80) and 6 of 6 under setting [4].

As for `CC1(C)COC(=O)C1=C(C#N)C#N`, the survivor count by setting is: under setting [1], 0 of 6; under setting [2], 3 of 6; under setting [3], 3 of 6.
